PubChem BioAssay AID2417 (National Center for Advancing Translational Sciences (NCATS), 2010)
Among all 140,000 compounds or so, about 4,300 (3.1%) were called active. Inconclusive results, whose numbers are uncertain, are shown with a selection of clear calls.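 Rule for the calls: active = readout at or below -70, meaning at least 70% loss of cells showing the perinucleolar compartment, a nuclear body marking cancer cells; inconclusive = readout between -30 and a set limit; inactive = the rest.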

Experiment: High Content Assay for Compounds that inhibit the Assembly of the Perinucleolar Compartment;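 note: plate controls were DMSO wells for no effect and camptothecin positive control wells for full effect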
Conditions: PC3M PTB-GFP, PNC prevalence imaging, 16 h; at 10 µM; active compounds read low
Method in brief: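 Read-out is percentage of cells bearing a perinucleolar compartment, from automated 20x imaging of fixed, Hoechst-stained PC3M PTB-GFP cells. Cells were seeded 4 h, then exposed 16 h to compound (23 nl of library stock) in duplicate plates.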
In the case of Cc1ccc(S(=O)(=O)N(C)CC(=O)N2CCN(C(=O)c3ccco3)CC2)cc1, the activity change (PNC), negative = inhibition is reported as inactive: 3.22%.
In the case of CCNc1c2c(nc3ccccc13)CC(C)(C)CC2=O, the activity change (PNC), negative = inhibition is reported as inconclusive: -75.7%.
With Cn1c(SCC(=O)c2ccc(F)cc2)nnc1-c1ccccc1N the activity change (PNC), negative = inhibition was inactive: 8.66%.
With C=CCOC(=O)C1=C(C)NC(SCC(=O)Nc2ccc(C)c(Cl)c2)=C(C#N)C1c1ccco1 (stereo not drawn) the activity change (PNC), negative = inhibition was inactive: 25.9%.
In the case of O=C(Nc1ccccc1)C(=O)Nc1ccccn1, the activity change (PNC), negative = inhibition is reported as inactive: 41.6%.
In the case of O=C(c1cc2ccccc2oc1=O)N(Cc1ccccc1)CC1CCCO1 (stereo not drawn), the activity change (PNC), negative = inhibition is reported as inconclusive: -35.3%.
With CCCCCCN1CC(O)=C(c2ccccc2)C1=N the activity change (PNC), negative = inhibition was inconclusive: -30.7%.
For O=C(Cn1ncc2c(=O)oc3ccccc3c21)Nc1nc2ccccc2s1, the activity change (PNC), negative = inhibition was inconclusive: -43.1%.
For COc1cc(C2c3c(oc4ccccc4c3=O)C(=O)N2Cc2cccnc2)cc(OC)c1OC (stereo not drawn), the activity change (PNC), negative = inhibition was inactive: -13.2%.
With COC(=O)C1=C(C)NC2=C(C(=O)CC(C)(C)C2)C1c1cnn(C)c1C (stereo not drawn) the activity change (PNC), negative = inhibition was inconclusive: -78.1%.
With Cc1ccc(NC(=O)CCCCCC2NC(=O)NC2C)cc1 (stereo not drawn) the activity change (PNC), negative = inhibition was inconclusive: -31%.
For COc1ccccc1-c1c(C(F)(F)F)oc2cc(OC(=O)c3ccc([N+](=O)[O-])cc3)ccc2c1=O, the activity change (PNC), negative = inhibition was inconclusive: -31.4%.
In the case of O=C(CN1CCN(Cc2ccc3c(c2)OCO3)CC1)Nc1ccc(F)cc1, the activity change (PNC), negative = inhibition is reported as inconclusive: -64.9%.
In the case of O=C1NC(=S)S/C1=C\c1ccc(SCc2ccccc2)o1, the activity change (PNC), negative = inhibition is reported as inactive: 34.4%.
In the case of S=C(Nc1ccc2cn[nH]c2c1)Nc1ccccc1Cl, the activity change (PNC), negative = inhibition is reported as inconclusive: -64.7%.
For O=C(Cc1coc(-c2ccc(F)cc2)n1)NC1CCCCC1, the activity change (PNC), negative = inhibition was inactive: 26.2%.
In the case of COc1ccc(Cl)cc1NC(=S)NCc1ccccn1, the activity change (PNC), negative = inhibition is reported as inconclusive: -50.8%.
In the case of Cn1c(CS(=O)Cc2c(Cl)cccc2Cl)nnc1SCc1c(Cl)cccc1Cl (stereo not drawn), the activity change (PNC), negative = inhibition is reported as inactive: 9.23%.
With COc1cc(NC(=S)NCCN2CCOCC2)cc(OC)c1 the activity change (PNC), negative = inhibition was inactive: -2.05%.
With COc1cccc(C(=O)CSc2nnc(-c3cc(OC)c(OC)c(OC)c3)o2)c1 the activity change (PNC), negative = inhibition was inactive: 0.992%.
With O=C(NCCc1ccccc1)c1cccc([N+](=O)[O-])c1 the activity change (PNC), negative = inhibition was inconclusive: -32.7%.
With Cc1ccc(NC(=O)C2CC(=O)NC(N3CCCCC3)=N2)cc1Cl (stereo not drawn) the activity change (PNC), negative = inhibition was inconclusive: -59.7%.
With O=c1c2[nH]c3ccc(Br)cc3c2ncn1CCCn1ccnc1 the activity change (PNC), negative = inhibition was inactive: 33.7%.
In the case of O=S(=O)(Nc1ccccn1)c1ccc(C2CCCCC2)cc1, the activity change (PNC), negative = inhibition is reported as inconclusive: -46.5%.
For Cc1nn(CC(=O)NC(C)c2ccccc2)c(=O)c2ccccc12 (stereo not drawn), the activity change (PNC), negative = inhibition was inconclusive: -33.7%.
In the case of CCN1/C(=C2\C(=O)N(c3ccccc3)N=C2C)C=Cc2cc(C)ccc21, the activity change (PNC), negative = inhibition is reported as inconclusive: -36.8%.
For CCN(CC)c1ccc(CNc2ccc(Br)cn2)cc1, the activity change (PNC), negative = inhibition was inactive: -14.1%.
For N#CC1=C(N)SC(N)=C(C#N)C1c1ccoc1, the activity change (PNC), negative = inhibition was inconclusive: -76.9%.
In the case of COc1ccc(N(C(=O)Cc2cccs2)C(C(=O)NC2CCCCC2)c2cccn2C)cc1OC (stereo not drawn), the activity change (PNC), negative = inhibition is reported as active: -116%.
In the case of CSCC[C@@H](C(=O)Nc1ccc2c(c1)OCCO2)N1Cc2ccccc2C1=O, the activity change (PNC), negative = inhibition is reported as inconclusive: -78%.
In the case of Cc1ccc(OCCSc2ncnc3sc(C)c(C)c23)cc1C, the activity change (PNC), negative = inhibition is reported as inconclusive: -57%.
In the case of CC(C)(C)NC(=S)NNC(=O)c1ccccc1Cl, the activity change (PNC), negative = inhibition is reported as inactive: -13%.
In the case of N#C/C(C(=O)N1CCOCC1)=c1\s/c(=C/c2ccncc2)c(=O)n1-c1ccccc1, the activity change (PNC), negative = inhibition is reported as inactive: 26.3%.
With O=C(N/N=C/c1cc(Br)ccc1O)c1ccccc1Cl the activity change (PNC), negative = inhibition was inconclusive: -38.6%.
With COn1c(SCc2ccccc2)nc2ccccc2c1=O the activity change (PNC), negative = inhibition was inconclusive: -53.7%.
For CCC(=O)Nc1ccc(N2CCCCC2)c(C(=O)Nc2ccccc2C)c1, the activity change (PNC), negative = inhibition was inconclusive: -55.5%.
With C/C=C/COC(=O)c1[nH]c2c(c1C)C(=O)CC(c1ccc(N(C)C)cc1)C2 (stereo not drawn) the activity change (PNC), negative = inhibition was inconclusive: -60.9%.
For COc1cccc(N2CCN(c3c(C#N)c(C(F)(F)F)nn3C)CC2)c1, the activity change (PNC), negative = inhibition was inactive: -3.05%.
With Cc1cc(OCC(C)C)ccc1/C(O)=C1/C(=O)C(=O)N(Cc2cccnc2)C1c1ccncc1 (stereo not drawn) the activity change (PNC), negative = inhibition was inactive: 42.7%.
For c1ccc(CCc2nc(-c3ccccc3)no2)cc1, the activity change (PNC), negative = inhibition was inactive: -18.6%.
In the case of COc1ccc(C)cc1S(=O)(=O)N1CCC(C(=O)NCCc2ccccc2)CC1, the activity change (PNC), negative = inhibition is reported as inconclusive: -38.7%.
In the case of COC(=O)[C@H](C)NC(=O)Nc1ccccc1F, the activity change (PNC), negative = inhibition is reported as inconclusive: -38.3%.
With COc1ccc(CN(C(=O)CSc2nnc(-c3ccccc3C)o2)c2ccc(F)cc2)cc1 the activity change (PNC), negative = inhibition was inactive: 71.9%.
For O=C1C2CC=CCC2C(=O)N1CC(=O)N(Cc1ccccc1)C1CCS(=O)(=O)C1 (stereo not drawn), the activity change (PNC), negative = inhibition was inconclusive: -57.4%.
With O=C(NCCc1ccccc1)c1c(O)c2cccc3c2n(c1=O)CC3 the activity change (PNC), negative = inhibition was inconclusive: -57.5%.
In the case of CCc1ccc(/C=N/NC(=O)c2cc(-c3ccncc3)nc3ccccc23)s1, the activity change (PNC), negative = inhibition is reported as active: -110%.
In the case of CCOC(=O)CC(=O)CSc1ncnc2c1oc1ccccc12, the activity change (PNC), negative = inhibition is reported as inactive: 11.1%.
For CCOCCCn1c(=S)[nH]c2cc(C(=O)NCCOC)ccc2c1=O, the activity change (PNC), negative = inhibition was inconclusive: -32.8%.
For CCCCc1nc(NCCNC(=O)c2ccco2)c(C#N)c2c1CSC(C)(C)C2, the activity change (PNC), negative = inhibition was inconclusive: -30.2%.
With COCCN1C(=O)C(=O)/C(=C(/O)c2ccc(S(=O)(=O)N3CCOCC3)cc2)C1c1ccc(C(C)C)cc1 (stereo not drawn) the activity change (PNC), negative = inhibition was inconclusive: -32%.
In the case of O=C(N1CCCCC1)C12CC3CC(C1)CC(C(=O)N1CCCCC1)(C3)C2, the activity change (PNC), negative = inhibition is reported as inconclusive: -46.7%.
In the case of COc1ccc(C)cc1NC(=O)CN1CCN(S(=O)(=O)c2ccc(Cl)cc2)CC1, the activity change (PNC), negative = inhibition is reported as inactive: -14.8%.
For O=C(O)COc1ccc(Cl)cc1CO, the activity change (PNC), negative = inhibition was inconclusive: -50.9%.
For CCOC(=O)C(C)Sc1nc(N)c(NC(=O)c2ccc(OC)c(OC)c2)c(=O)[nH]1 (stereo not drawn), the activity change (PNC), negative = inhibition was inconclusive: -58.5%.
With Cc1ccccc1NC(=O)CN1C(=O)S/C(=C\c2cccn2-c2cccc(C(=O)O)c2)C1=O the activity change (PNC), negative = inhibition was inconclusive: -41.4%.
In the case of CCCCOc1ccc(C(=O)Nc2ccncc2)cc1, the activity change (PNC), negative = inhibition is reported as active: -118%.
For CC(=O)c1ccc(S(=O)c2ccccc2)cc1 (stereo not drawn), the activity change (PNC), negative = inhibition was inconclusive: -67.8%.
With COC(=O)CN(c1nc(C)c(Cl)c(OC)n1)S(=O)(=O)c1ccc(C)cc1 the activity change (PNC), negative = inhibition was inconclusive: -62.2%.
